Results on four substances are retold here after doi:10.1101/2023.01.25.525455.

Protein sequences, listed by entry. Tags and fused reporters are not part of them. Residues count along the entry.
UniProt Q8N668: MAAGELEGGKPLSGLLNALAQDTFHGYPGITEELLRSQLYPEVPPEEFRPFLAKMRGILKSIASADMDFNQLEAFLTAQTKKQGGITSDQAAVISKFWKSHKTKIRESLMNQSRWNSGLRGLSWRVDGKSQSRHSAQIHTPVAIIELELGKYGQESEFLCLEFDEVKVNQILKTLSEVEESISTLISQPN
UniProt Q86X83: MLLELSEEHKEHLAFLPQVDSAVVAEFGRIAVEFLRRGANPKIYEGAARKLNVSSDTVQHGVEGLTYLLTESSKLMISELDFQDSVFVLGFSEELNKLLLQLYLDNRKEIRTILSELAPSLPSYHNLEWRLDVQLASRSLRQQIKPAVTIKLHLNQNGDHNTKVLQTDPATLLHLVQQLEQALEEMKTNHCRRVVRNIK
UniProt Q9Y6G5, residues 12-202: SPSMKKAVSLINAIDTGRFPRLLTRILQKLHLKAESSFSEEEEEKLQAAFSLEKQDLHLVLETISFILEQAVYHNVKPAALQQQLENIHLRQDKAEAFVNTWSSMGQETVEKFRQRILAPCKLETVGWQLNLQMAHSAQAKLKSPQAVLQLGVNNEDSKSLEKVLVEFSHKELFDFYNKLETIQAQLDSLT
UniProt Q7Z4G1: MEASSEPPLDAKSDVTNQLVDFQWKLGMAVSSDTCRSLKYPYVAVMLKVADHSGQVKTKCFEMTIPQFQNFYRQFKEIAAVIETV
UniProt Q9H0A8: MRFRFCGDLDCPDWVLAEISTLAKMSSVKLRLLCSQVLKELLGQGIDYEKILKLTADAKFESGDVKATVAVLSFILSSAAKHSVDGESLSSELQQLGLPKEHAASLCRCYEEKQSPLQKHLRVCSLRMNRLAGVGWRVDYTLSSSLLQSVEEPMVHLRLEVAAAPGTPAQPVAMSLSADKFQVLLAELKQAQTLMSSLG
UniProt Q9NX08: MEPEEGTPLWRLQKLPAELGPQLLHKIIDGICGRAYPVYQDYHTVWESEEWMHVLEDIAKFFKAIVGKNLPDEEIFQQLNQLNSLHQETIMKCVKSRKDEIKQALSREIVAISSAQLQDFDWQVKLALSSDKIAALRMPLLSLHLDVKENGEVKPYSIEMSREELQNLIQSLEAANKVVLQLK
UniProt Q86VX2: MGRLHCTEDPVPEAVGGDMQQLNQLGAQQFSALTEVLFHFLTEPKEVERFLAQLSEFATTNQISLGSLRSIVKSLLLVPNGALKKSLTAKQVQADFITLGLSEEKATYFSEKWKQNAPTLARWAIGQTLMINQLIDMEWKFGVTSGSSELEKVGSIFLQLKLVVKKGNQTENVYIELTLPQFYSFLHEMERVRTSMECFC

What all share (assay): affinity purification with mass spectrometry
For test [1], the target named is COMMD1-His (human) (UniProt Q8N668).
The target of test [2] is COMMD2-His (human) (UniProt Q86X83).
In test [3] the target is COMMD10-His (human) (UniProt Q9Y6G5).

These are yes or no findings as the source states them, for the method shown. In cells and extracts the contact can be indirect. These calls come from enrichment with a bait or labelling near it, and not all partners need be listed.

On to “COMMD6 (E. coli co-expression) (from UniProt Q7Z4G1 1-85)”, for which the binding result in test [1] is reported as “binds”.
Turning to “COMMD4 (E. coli co-expression) (from UniProt Q9H0A8 1-199)”, the binding result in test [2] and in test [1] was “binds” in each case.
Regarding “COMMD8 (E. coli co-expression) (from UniProt Q9NX08 1-183)”, the binding entry in test [2] and in test [1] was “binds” in each case.
With “COMMD7 (E. coli co-expression) (from UniProt Q86VX2 1-200)”, the binding result in test [3] is “binds”.
